Test results reported in publication PMC9722907.

T1: ATG18a-GFP (Arabidopsis thaliana) (UniProt Q93VB2)
T1 sequence: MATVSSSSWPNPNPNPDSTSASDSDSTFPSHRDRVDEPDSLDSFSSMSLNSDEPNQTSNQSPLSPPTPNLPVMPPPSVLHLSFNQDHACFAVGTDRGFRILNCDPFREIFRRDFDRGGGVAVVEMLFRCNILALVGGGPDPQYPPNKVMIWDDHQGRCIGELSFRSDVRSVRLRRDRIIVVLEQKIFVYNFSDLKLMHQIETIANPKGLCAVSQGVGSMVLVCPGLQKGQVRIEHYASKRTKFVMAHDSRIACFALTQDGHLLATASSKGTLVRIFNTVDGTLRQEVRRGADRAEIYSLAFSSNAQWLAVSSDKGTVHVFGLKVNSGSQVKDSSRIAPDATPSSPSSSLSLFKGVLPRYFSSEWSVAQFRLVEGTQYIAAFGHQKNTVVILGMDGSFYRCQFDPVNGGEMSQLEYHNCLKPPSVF

B1: catalase CAT2 (enzyme, UniProt P25819 1-492)
chain: MDPYKYRPASSYNSPFFTTNSGAPVWNNNSSMTVGPRGPILLEDYHLVEKLANFDRERIPERVVHARGASAKGFFEVTHDISNLTCADFLRAPGVQTPVIVRFSTVIHERGSPETLRDPRGFAVKFYTREGNFDLVGNNFPVFFIRDGMKFPDMVHALKPNPKSHIQENWRILDFFSHHPESLNMFTFLFDDIGIPQDYRHMDGSGVNTYMLINKAGKAHYVKFHWKPTCGVKSLLEEDAIRVGGTNHSHATQDLYDSIAAGNYPEWKLFIQIIDPADEDKFDFDPLDVTKTWPEDILPLQPVGRMVLNKNIDNFFAENEQLAFCPAIIVPGIHYSDDKLLQTRVFSYADTQRHRLGPNYLQLPVNAPKCAHHNNHHEGFMNFMHRDEEVNYFPSRYDQVRHAEKYPTPPAVCSGKRERCIIEKENNFKEPGERYRTFTPERQERFIQRWIDALSDPRITHEIRSIWISYWSQADKSLGQKLASRLNVRPSI
B2: catalase CAT3 (enzyme, UniProt Q42547 1-492)
chain: MDPYKYRPSSAYNAPFYTTNGGAPVSNNISSLTIGERGPVLLEDYHLIEKVANFTRERIPERVVHARGISAKGFFEVTHDISNLTCADFLRAPGVQTPVIVRFSTVVHERASPETMRDIRGFAVKFYTREGNFDLVGNNTPVFFIRDGIQFPDVVHALKPNPKTNIQEYWRILDYMSHLPESLLTWCWMFDDVGIPQDYRHMEGFGVHTYTLIAKSGKVLFVKFHWKPTCGIKNLTDEEAKVVGGANHSHATKDLHDAIASGNYPEWKLFIQTMDPADEDKFDFDPLDVTKIWPEDILPLQPVGRLVLNRTIDNFFNETEQLAFNPGLVVPGIYYSDDKLLQCRIFAYGDTQRHRLGPNYLQLPVNAPKCAHHNNHHEGFMNFMHRDEEINYYPSKFDPVRCAEKVPTPTNSYTGIRTKCVIKKENNFKQAGDRYRSWAPDRQDRFVKRWVEILSEPRLTHEIRGIWISYWSQADRSLGQKLASRLNVRPSI

Molecular target: T1, ATG18a-GFP (Arabidopsis thaliana)
Assay: affinity purification with mass spectrometry; immunoprecipitation of ATG18a-GFP with µMACS Anti-GFP MicroBeads from total protein of atg2(p1) plants grown under normal light; lysis buffer 50 mM HEPES-KOH (pH 7.5), 0.15 M NaCl, 0.5% Triton X-100, 0.1% Tween 20; in-gel trypsin digestion …; GFP-expressing atg2(p1) as control; repeated three times

| Binder | binding |
| --- | --- |
| B1 | binds |
| B2 | binds |

No constants are given. Whether binding was seen depends on the method and setting. Binding seen in cells or lysates may run through a third protein. A yes stands for co-enrichment or nearness to the bait. Other partners may have been found. Tags and fused reporters may be left off the sequences shown.
